# Reference: the supplement of paper PMC10735217
# Counter-ions that a name gives are not always drawn. The list shows a part of the results. Repeats in this data set agree poorly, so a single value says little.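 Human kidney-derived cells stably carry a construct in which eight TEAD-binding elements drive luciferase, measured by luminescence in a drug-repurposing library screen. A hit is any compound whose signal exceeds the plate mean by more than five robust Z scores.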
# System: HEK293A TEAD-LUC reporter
# Assay: TEAD-luciferase reporter activity (YAP activation), robust Z score vs plate; higher = stronger YAP/TEAD activation
# Conditions: 24 h
Compound,TEAD-luciferase reporter activity (compound concentration: 200 nM),TEAD-luciferase reporter activity (compound concentration: 2 uM),TEAD-luciferase reporter activity (compound concentration: 10 uM)
O=[N+]([O-])c1cn2c(n1)OC[C@@H](OCc1ccc(-c3ccc(OC(F)(F)F)cc3)nc1)C2,inactive: 1.15,inactive: 0.0529,inactive: 0.32
Fc1ccc(N2CCN(CCSc3nnc4ccccn34)CC2)c(F)c1,inactive: -2.92,inactive: 0.111,inactive: -0.291
CN(C)CCCOC1(Cc2ccccc2)CCCCCC1,inactive: 0.565,inactive: -0.153,inactive: 0.83
O=C(NCC1CC1)C1CN(c2ccccc2)C(=O)N1 (stereo not given),inactive: 4.79,,inactive: 3.66
CC(=O)SCC(C)C(=O)Nc1cccc(C(=O)O)c1 (stereo not given),inactive: -1.58,inactive: -0.707,inactive: 0.131
C#CCOC[C@H]1CO[C@](Cn2ccnc2)(c2ccc(Cl)cc2Cl)O1 [Parconazole],inactive: -1.55,inactive: 0.728,inactive: 0.844
Cc1cc(Nc2ncc(F)c(N[C@@H]3[C@H](C(N)=O)[C@H]4C=C[C@@H]3C4)n2)ccc1N1CCN(C)CC1,inactive: -0.00932,inactive: 0.761,inactive: 2.72
C/C=C/C1=C(C(=O)O)N2C(=O)[C@@H](NC(=O)/C(=N\O)c3csc(N)n3)[C@H]2SC1,inactive: -1.88,inactive: -0.0673,inactive: -0.575
CCCn1nc(-c2ccccc2)ccc1=O,inactive: 3.13,inactive: -2.29,active: 5.01
CC(=O)N1CCC2(CC1)CN(C(=O)CCCNC(N)=O)Cc1ccccc1O2,inactive: 0.0329,,active: 77
CN(C(=O)C1CC1)C1CCc2ccccc21 (stereo not given),inactive: -1.42,,inactive: 0.808
CCOc1ccc2nc(S(N)(=O)=O)sc2c1,inactive: -1.47,inactive: 1.35,inactive: 2.02
COCC(=O)Nc1c(I)c(C(=O)NCC(O)CO)c(I)c(C(=O)N(C)CC(O)CO)c1I (stereo not given) [peptide analogues],,inactive: -0.779,
"COCC(=O)Nc1c(I)c(C(=O)NCC(O)CO)c(I)c(C(=O)N(C)CC(O)CO)c1I (stereo not given) [peptide analogues, ResCo]",inactive: -2.78,,active: 5.21
COc1c(N2CCC(=O)CC2)c(F)cc2c(=O)c(C(=O)O)cn(C3CC3)c12,inactive: -0.993,inactive: -1.17,inactive: 2.94
CCCc1nc(C)n2[nH]c(=O)nc2c1Cc1ccc(-c2ccccc2-c2nnn[nH]2)cc1,inactive: -1.32,,inactive: 2.29
Brc1ccc(NC2C3CC4CC(C3)CC2C4)cc1 (stereo not given) [Ladasten],inactive: -0.827,inactive: -0.451,inactive: -1.3
C[C@]1(O)C[C@@H](c2nc(-c3ccc4ccc(-c5ccccc5)nc4c3)c3c(N)nccn32)C1 [Linsitinib],inactive: -1.15,inactive: 0.321,inactive: -0.289
Cc1nc2ccc(Oc3ccccc3)cc2c2c1CCN2c1ccc(C(C)C)cc1,inactive: -0.996,inactive: 2.28,inactive: -0.561

Compound,TEAD-luciferase reporter activity (compound concentration: 200 nM),TEAD-luciferase reporter activity (compound concentration: 2 uM),TEAD-luciferase reporter activity (compound concentration: 10 uM)
Cn1cnc2c(F)c(Nc3ccc(Br)cc3Cl)c(C(=O)NOCCO)cc21 [selumetinib],inactive: -1.28,inactive: 1.12,inactive: -1.03
N=C(N)NN1Cc2c(Cl)ccc(Cl)c2C1,inactive: 1.84,inactive: -0.337,inactive: -0.18
CC(C)C[C@H](NC(=O)[C@H](CC(N)=O)NC(=O)[C@H](CCCNC(=N)N)NC(=O)[C@H](CC(C)C)NC(=O)[C@H](CO)NC(=O)[C@H](CCC(=O)O)NC(=O)[C@@H](N)CCCNC(=N)N)C(=O)N[C@@H](CCCNC(=N)N)C(=O)NCC(=O)N[C@@H](Cc1ccc(O)cc1)C(=O)O,inactive: -0.102,inactive: 1.2,inactive: 0.386
CNCCC(Oc1ccc(C(F)(F)F)cc1)c1ccccc1 (stereo not given),inactive: 0.06,,inactive: -0.213
CNCCC(Oc1ccc(C(F)(F)F)cc1)c1ccccc1 (stereo not given) [fluoxetine HCl],,inactive: -1.79,
C[C@@H](C1CCCCC1)n1c(-c2cc3c(cc2Br)OCO3)nc2cc(C(=O)Nc3ccc(C#N)cc3)ccc21,inactive: -0.328,,inactive: -0.526
O=C(O)Cc1cc(I)c(Oc2ccc(O)c(I)c2)c(I)c1 [Triiodothyroacetic],,inactive: -1.03,
"O=C(O)Cc1cc(I)c(Oc2ccc(O)c(I)c2)c(I)c1 [_q_Tiratricol, 3,3',5-triiodothyroacetic acid_q_]",inactive: -0.641,,inactive: -0.394
CC(=O)OCC(=O)[C@@]1(O)CC[C@H]2[C@@H]3CCC4=CC(=O)C=C[C@]4(C)[C@H]3[C@@H](O)C[C@@]21C [Prednisolone acetate],,inactive: -1.22,
CC(=O)OCC(=O)[C@@]1(O)CC[C@H]2[C@@H]3CCC4=CC(=O)C=C[C@]4(C)[C@H]3[C@@H](O)C[C@@]21C,inactive: -1.12,,inactive: 0.519
CCCOc1sc(C(=O)N2CCC(c3cc(CC)ccc3F)CC2)c(C)c1Br,inactive: -0.83,inactive: -1.36,inactive: -1.32
O=C(NCc1cccnc1)c1ccc2nccn2c1,inactive: -2.44,,inactive: 0.0253
O=c1[nH]c(=O)n(C2CC(O)C(CO)O2)cc1Br (stereo not given) [5-bromodeoxyuridine],inactive: -0.799,inactive: 0.259,inactive: -0.49
O=C(N[C@H](CO)[C@H](O)c1ccc([N+](=O)[O-])cc1)C(Cl)Cl,inactive: 3.99,,inactive: 0.795
O=C(N[C@H](CO)[C@H](O)c1ccc([N+](=O)[O-])cc1)C(Cl)Cl [Chloramphenicol],,inactive: 0.349,
CC(C)=CCOc1cc(NC(=S)c2ccccn2)ccc1Cl,inactive: -0.625,inactive: -0.0606,inactive: 0.293
O=C(/C=C/c1ccc2ccc(C(F)(F)F)cc2n1)c1ccncc1,inactive: 0.591,inactive: 0.0891,inactive: 0.0398
CNC(=O)c1ccc(C)c(-n2c(C)cc(OCc3ccc(F)cc3F)c(Br)c2=O)c1,inactive: -0.9,inactive: -1.68,inactive: -0.62

# A run of entries taken from the entries so far, for reference:
Compound,TEAD-luciferase reporter activity (compound concentration: 200 nM),TEAD-luciferase reporter activity (compound concentration: 2 uM),TEAD-luciferase reporter activity (compound concentration: 10 uM)
CNCCC(Oc1ccc(C(F)(F)F)cc1)c1ccccc1 (stereo not given) [fluoxetine HCl],,inactive: -1.79,
C[C@@H](C1CCCCC1)n1c(-c2cc3c(cc2Br)OCO3)nc2cc(C(=O)Nc3ccc(C#N)cc3)ccc21,inactive: -0.328,,inactive: -0.526
O=C(O)Cc1cc(I)c(Oc2ccc(O)c(I)c2)c(I)c1 [Triiodothyroacetic],,inactive: -1.03,
"O=C(O)Cc1cc(I)c(Oc2ccc(O)c(I)c2)c(I)c1 [_q_Tiratricol, 3,3',5-triiodothyroacetic acid_q_]",inactive: -0.641,,inactive: -0.394
CC(=O)OCC(=O)[C@@]1(O)CC[C@H]2[C@@H]3CCC4=CC(=O)C=C[C@]4(C)[C@H]3[C@@H](O)C[C@@]21C [Prednisolone acetate],,inactive: -1.22,
CC(=O)OCC(=O)[C@@]1(O)CC[C@H]2[C@@H]3CCC4=CC(=O)C=C[C@]4(C)[C@H]3[C@@H](O)C[C@@]21C,inactive: -1.12,,inactive: 0.519
CCCOc1sc(C(=O)N2CCC(c3cc(CC)ccc3F)CC2)c(C)c1Br,inactive: -0.83,inactive: -1.36,inactive: -1.32
O=C(NCc1cccnc1)c1ccc2nccn2c1,inactive: -2.44,,inactive: 0.0253
O=c1[nH]c(=O)n(C2CC(O)C(CO)O2)cc1Br (stereo not given) [5-bromodeoxyuridine],inactive: -0.799,inactive: 0.259,inactive: -0.49
O=C(N[C@H](CO)[C@H](O)c1ccc([N+](=O)[O-])cc1)C(Cl)Cl,inactive: 3.99,,inactive: 0.795
O=C(N[C@H](CO)[C@H](O)c1ccc([N+](=O)[O-])cc1)C(Cl)Cl [Chloramphenicol],,inactive: 0.349,
